# Reference: PubChem BioAssay (NCATS)
# By UniProt entry, the sequences of proteins in these tests, tags left out. Where a name states a change or a piece, a line headed by the entry shows the natural chain unless it says otherwise.
# UniProt Q14994: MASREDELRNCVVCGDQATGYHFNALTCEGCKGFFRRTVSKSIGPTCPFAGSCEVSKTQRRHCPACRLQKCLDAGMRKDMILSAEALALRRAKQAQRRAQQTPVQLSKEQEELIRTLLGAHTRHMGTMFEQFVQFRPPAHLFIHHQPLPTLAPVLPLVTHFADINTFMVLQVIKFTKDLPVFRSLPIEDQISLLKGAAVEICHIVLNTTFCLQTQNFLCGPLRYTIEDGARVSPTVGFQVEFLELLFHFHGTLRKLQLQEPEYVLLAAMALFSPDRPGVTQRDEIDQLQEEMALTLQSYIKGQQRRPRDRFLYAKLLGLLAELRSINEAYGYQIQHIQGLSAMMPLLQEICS
# Inconclusive results, whose numbers are uncertain, are shown with a selection of clear calls. A call without a number means that no potency is given here. For some assays here: A potency beside an inconclusive call is a rough fit, not a confirmed value. Activity calls are given as the source filed them. Calls follow the shape of the dose curve; as a rule, active = well fitted curve in the direction sought with a large enough effect; inconclusive = small, poorly fitted or top-dose-only effect, or another doubt; inactive = no such curve, though single readings can be large; an effect the other way counts as inactive or inconclusive.
# Columns and labels:
# [1] = A2780 Cisplatin Sensitive Ovarian Cancer Cell Toxicity qHTS against the NCATS CANVASS Library (AID 1347353); also: nearly all actives have a fitted effect of over 60% in size; also: potency is read from the fitted curve at half-maximal effect
# In short: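 Luminescent ATP content (ATPLite, 10 min at room temperature) served as the read-out after cells had been exposed to compounds for 72 hours at 37 °C. Dosing followed an 11-point concentration series.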
# [2] = HPAF-II 12hr Apoptosis Induction qHTS against the NCATS CANVASS Library (AID 1347358)
# In short: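 500 HPAF-II cells/well; cmpds 11-pt; 12 hr, 37 degrees C/5% CO2; Caspase-Glo 3/7 added, 15 min RT dark; luminescence read. Doxorubicin titration as control.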
# [3] = DH5-alpha competent E. coli microbial cell viability qHTS against the NCATS CANVASS Library (AID 1347377); conditions: viability signal change, negative = cytotoxic: at 46.1 µM (top of the series)
# In short: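 qHTS, 11-pt; E. coli DH5-alpha, 0.2 OD; o/n 37C/5% CO2; BacTiter-Glo, 20 min RT; luminescence.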
# [4] = qHTS for activators of Nrf2/ARE signaling pathway screened against the NCATS CANVASS Library (AID 1347391); also: nearly all actives have a fitted effect of over 60% in size; also: potency is read from the fitted curve at half-maximal effect
# In short: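 Plate ARE-bla HepG2 cells at 2000/well and let them settle 5 h. Pin-transfer compounds in DMSO, incubate 16 h at 37C. Load CCF4 for 2 h at room temperature and read blue/green fluorescence.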
# [5] = qHTS for activators of dead-cell proteases activity screened against the NCATS CANVASS Library (AID 1347392);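 also: luminescence from protease leaking out of membrane-damaged cells cleaving impermeant substrate; rising signal means more cytotoxicity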; also: potency is read from the fitted curve at half-maximal effect
# In short: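 Compounds are pin-transferred onto attached HepG2 cells, giving 11 final concentrations. After 5 h at 37C, AAF-aminoluciferin reagent is added and luminescence is recorded at room temperature.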
# [6] = Viability qHTS for inhibitors of the SERCaMP assay screened against the NCATS CANVASS Library (AID 1347400); also: potency is read from the fitted curve at half-maximal effect; nearly all actives have a fitted effect of over 70% in size
# In short: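 SH-SY5Y SERCaMP MJH297 cells, 1000/well; 4 h settle, 37C/5% CO2; pin-transferred cpds; 48 h; CellTiter-Glo lum. Pos ctrl bortezomib 0.0001 - 4.6 uM.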
# [7] = KB-8-5-11 Cancer Cell Toxicity qHTS against the NCATS CANVASS Library (AID 1347364); conditions: activity change, negative = toxicity: at 46.1 µM (top of the series); also: nearly all actives have a fitted effect of over 75% in size
# In short: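 Plate 500 KB-8-5-11 cells per well in DMEM + 10% FBS, add compounds by pin transfer, incubate 72 hr at 37C. Add CellTiter-Glo, wait 10 minutes at room temperature, read luminescence.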
# [8] = SDT Cancer Cell Toxicity qHTS against the NCATS CANVASS Library (AID 1347365);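 also: SDT canine glioma cells 500 per well in 1536 well plates; nearly all actives have a fitted effect of over 60% in size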
# In short: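 qHTS, SDT dog glioma line, 500 cells/well; cpds 11 pts; 72 hr, 37C, 5% CO2; CellTiterGlo ATP luminescence.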
# [9] = qHTS for ATAD5 Antagonist screened against the NCATS CANVASS Library (AID 1347370);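 also: HEK293T cells carrying an ATAD5 luciferase reporter co-treated with 10 µM 5-fluorouridine; nearly all actives have a fitted effect of over 65% in size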
# In short: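 HEK293T cells with stably integrated ATAD5-luciferase reporter, 2000/well, 5 h attachment; compounds plus 10 µM 5-fluorouridine, 16 h at 37 °C. Luciferase luminescence read, with CellTiter-Fluor viability read first.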
# [10] = qHTS for Antimalaria activity screened against the NCATS CANVASS Library (AID 1347380); also: potency is read from the fitted curve at half-maximal effect; nearly all actives have a fitted effect of over 40% in size
# In short: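 Dd2 strain, infected erythrocytes 2.5% Hct final / 0.3% parasitemia. 11-pt qHTS titration, 72 h, 37C, 5% O2, 5% CO2. Lysis buffer + SYBR Green, 18 h, fluorescence 485/535 nm.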
# [11] = Secretion counterscreen for inhibitors of the SERCaMP assay screened against the NCATS CANVASS Library (AID 1347390); conditions: SH-SY5Y constitutive GLuc secretion, luminescence, 20 h; activity change, negative = inhibition: at 76.6 µM (top of the series);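 also: light from luciferase secreted into medium read as a measure of general secretion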; also: potency is read from the fitted curve at half-maximal effect
# In short: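 Counterscreen identifying compounds that disrupt secretion, using SH-SY5Y cells with a constitutively secreted Gaussia luciferase reporter. A 20 h compound exposure (top 77 uM) precedes luminescent detection with coelenterazine.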
# [12] = qHTS for inhibitors of ER calcium dysfunction: SERCaMP assay screened against the NCATS CANVASS Library (AID 1347393); conditions: SH-SY5Y GLuc-SERCaMP secretion, thapsigargin, luminescence; activity change, negative = inhibition: at 76.6 µM (top of the series) unless noted;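 also: lower secreted reporter signal means inhibitor of ER calcium depletion; nearly all actives have a fitted effect of over 40% in size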
# In short: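 Thapsigargin-induced ER calcium depletion drives GLuc-SERCaMP secretion from SH-SY5Y cells; compounds given 16 h beforehand were scored by lowered coelenterazine luminescence after 4 h challenge.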
# [13] = UWB1.289 Cancer Cell Toxicity qHTS against the NCATS CANVASS Library (AID 1347347); also: nearly all actives have a fitted effect of over 60% in size
# In short: (§1)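 Per well, 1000 cells; exposure 72 h with compound at 11 final concentrations; readout CellTiter-Glo luminescence.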
# [14] = HEK-293 Cancer Cell Toxicity qHTS against the NCATS CANVASS Library (AID 1347355); also: nearly all actives have a fitted effect of over 65% in size; also: potency is read from the fitted curve at half-maximal effect
# In short: (§2)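 Luminescent ATP read-out (CellTiter-Glo, 15min at room temperature) measures survival after cells face an 11-point compound series for 72 hours at 37 degrees C/5% CO2.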
# [15] = KB-3-1 Cancer Cell Toxicity qHTS against the NCATS CANVASS Library (AID 1347366); also: nearly all actives have a fitted effect of over 75% in size
# In short: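 Seed KB-3-1 cells at 500/well in DMEM with 10% FBS, add compounds, incubate 72 hr at 37C and 5% CO2, then add CellTiter-Glo and read luminescence after 10 minutes.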
# [16] = G06 Cancer Cell Toxicity qHTS against the NCATS CANVASS Library (AID 1347368)
# In short: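 Dog G06 glioma line, 500 cells/well; cpds pin-transferred, 11-pt; 72 hr, 37C/5% CO2; CellTiterGlo luminescence (ATP) endpoint.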
# [17] = HPAF-II 24hr Apoptosis Induction qHTS against the NCATS CANVASS Library (AID 1347356)
# In short: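 Luminescent caspase-3/7 signal (DEVD substrate, Caspase-Glo) served as read-out, taken 15 min after reagent addition to HPAF-II cells exposed 24 h to compounds.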
# [18] = MCF7 Cancer Cell Toxicity qHTS against the NCATS CANVASS Library (AID 1347369); conditions: activity change, negative = cytotoxicity: at 46 µM (top of the series)
# In short: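 Cytotoxicity is measured by ATP content: MCF7 cells at 500 per well receive an 11-point compound series and, after 72 hr at 37C, are lysed with CellTiterGlo for luminescence.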
# [19] = molecular target: Nuclear receptor subfamily 1 group I member 3 (Homo sapiens) (UniProt Q14994); assay: qHTS for Constitutive Androstane Receptor (CAR) Agonist screened against the NCATS CANVASS Library (AID 1347373);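 also: every well also contained 1.5 µM PK11195 alongside the test compound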
# In short: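 HepG2-hCAR-CYP2B6 cells, 2500/well, attached 4hr; cpd + PK11195 1.5uM final; 24hr 37C 5% CO2. CellTiter-Fluor viability read, then ONE-Glo luminescence for CAR activation.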
# [20] = qHTS for Inflammasome Signaling Inhibitors: IL-1-beta AlphaLISA screen against the NCATS CANVASS Library (AID 1347379);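 also: human THP-1 cells primed with LPS then triggered with ATP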
# In short: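 THP-1 cells pretreated 1 hr with compound (up to 57.5 uM final), then stimulated with LPS (250 ng/mL final) and ATP (1.25 mM final). Secreted IL-1B measured by AlphaLISA after 16 hr; glyburide as positive control.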
# [21] = Panc-1005 Cancer Cell Toxicity qHTS against the NCATS CANVASS Library (AID 1347349)
# In short: as §1
# [22] = SW1088 Cancer Cell Toxicity qHTS against the NCATS CANVASS Library (AID 1347350); also: nearly all actives have a fitted effect of over 75% in size; also: potency is read from the fitted curve at half-maximal effect
# In short: as §1
# [23] = U-118MG Cancer Cell Toxicity qHTS against the NCATS CANVASS Library (AID 1347351); also: potency is read from the fitted curve at half-maximal effect
# In short: as §1
# [24] = UWB1.289-WTBRCA1 Cancer Cell Toxicity qHTS against the NCATS CANVASS Library (AID 1347354); also: potency is read from the fitted curve at half-maximal effect
# In short: as §2
# [25] = HEK293 18hr Apoptosis Induction qHTS against the NCATS CANVASS Library (AID 1347357); also: potency is read from the fitted curve at half-maximal effect
# In short: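 Luminescent caspase-3/7 signal is measured in HEK293 cells exposed for 18 hours to an 11-point concentration series; doxorubicin serves as the plate control.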
# [26] = qHTS for Hypoxia signaling pathway (HIF-1) agonists against the NCATS CANVASS Library (AID 1347375)
# In short: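 ME-180 HRE-bla reporter cells; 2,000/well, 0.5% dialyzed FBS; cpd added after 5 h, 17 h 37C/5% CO2; CCF4-AM 2 h RT; FRET 460/530 nm; CellTiter-Glo viability same wells, 30 min.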
# [27] = qHTS for H2AX Agonists against the NCATS CANVASS Library (AID 1347378);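 also: phospho-H2AX S139 level in CHO-K1 lysates by TR-FRET emission ratio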
# In short: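 Following overnight seeding, CHO-K1 cells are incubated with a concentration series of compound for 3 hr at 37C (final DMSO 0.76%). Cells are then lysed, detection antibodies added, and emission ratio 665/620 nm recorded after 24 hr at room temperature.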
# [28] = COV-362 Cancer Cell Toxicity qHTS against the NCATS CANVASS Library (AID 1347352)
# In short: as §2
# [29] = qHTS for Activators of p53 Stress Response Pathway screened against the NCATS CANVASS Library (AID 1347388)
# In short: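 Beta-lactamase reporter driven by p53 response elements in HCT-116 cells, read as the 460 nm/530 nm emission ratio after CCF4 loading, following 16 h of exposure to an 11-point series. Cell viability was measured in the same wells by CellTiter-Glo luminescence.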
smiles,measurement,setting,value
COc1ccc([C@@H]2c3cc(OC)c(OC)cc3C(=O)C(C)C2C)cc1OC (some centres undefined),Potency,[1],"inconclusive: 37.2 µM [cytotoxic, single point]"
same,Potency,[2],inactive
same,Potency,[3],inactive
same,Potency,[4],"inconclusive: 33.1 µM [activator, partial curve, poor fit]"
same,Potency,[5],inactive
same,Potency,[6],"inconclusive: 24 µM [cytotoxic, partial curve, poor fit]"
O=c1cc(-c2ccc(O)cc2)oc2c([C@@H]3OC(CO)[C@H](O)[C@@H](O)[C@H]3O)c(O)cc(O)c12 (some centres undefined),Potency,[7],inactive
same,Potency,[8],inactive
same,Potency,[9],inactive
same,Potency,[10],active: 0.0013 µM
same,Potency,[11],"inconclusive: 15.3 µM [inhibitor, single point]"
same,Potency,[12],inactive
O=C(O)CC1OC(=O)c2c(O)cccc21 (centres undefined),Potency,[13],inactive
same,Potency,[1],inactive
same,Potency,[14],"inconclusive: 18.7 µM [cytotoxic, partial curve]"
same,Potency,[15],inactive
same,Potency,[16],"inconclusive: 0.0118 µM [cytotoxic, full curve]"
same,Potency,[10],"inconclusive: 0.0067 µM [cytotoxic, full curve, poor fit]"
C=CC(C)(C)C(=O)[C@@H](C)[C@@H]1CC[C@@](C)(C=C)O1,Potency,[17],inactive
same,Potency,[18],inactive
same,Potency,[9],inactive
same,Potency,[19],inactive
same,Potency,[20],inactive
same,Potency,[12],inactive
CN1CC[C@]2(c3cccc4c3N[C@@H]3N(C)CC[C@]43[C@@]34CCN(C)[C@@H]3Nc3ccccc34)c3ccccc3N[C@H]12,Potency,[21],active: 16.8 µM
same,Potency,[22],"inconclusive: 21.1 µM [cytotoxic, single point]"
same,Potency,[23],active: 7.49 µM
same,Potency,[24],"inconclusive: 29.8 µM [cytotoxic, single point]"
same,Potency,[25],"inconclusive: 20.9 µM [activator, single point]"
same,Potency,[26],inactive
same,Potency,[3],"inconclusive: 37.1 µM [rising, single point]"
same,Potency,[27],inactive
same,Potency,[10],active: 1.49 µM
same,Potency,[11],"inconclusive: 60.9 µM [inhibitor, single point]"
same,Potency,[5],"inconclusive: 23.4 µM [activator, single point]"
same,Potency,[6],active: 15.2 µM
CC(C)=CCCC(C)(O)[C@H]1CC=C(C)C(O)C1 (some centres undefined),Potency,[22],inactive
same,Potency,[28],inactive
same,Potency,[14],inactive
same,Potency,[7],inactive
same,Potency,[10],"inconclusive: 0.0047 µM [cytotoxic, full curve, poor fit]"
same,Potency,[29],inactive
same,Potency,[11],inactive
same,Potency,[4],inactive

# An excerpt of these results, tab-delimited:
smiles	measurement	setting	value
CC(C)=CCCC(C)(O)[C@H]1CC=C(C)C(O)C1 (some centres undefined)	Potency	[7]	inactive
same	Potency	[10]	inconclusive: 0.0047 µM [cytotoxic, full curve, poor fit]
same	Potency	[29]	inactive
